Data published in the supplement of paper PMC3682954.
Counter-ions that a name gives are not always drawn. ± gives the standard deviation of the averaged measurements. This is one part of the list. Many values rest on one well or one pass, so single values are uncertain.

Tested on: RAW 264.7
Test: cell viability (MTT) relative to vehicle control; higher = more viable cells
Settings: stimulus: HMGB1 5 ug/ml, 18 h
[1] = compound concentration: 1 ug/ml

| Structure (SMILES) | cell viability (compound concentration: 3 uM) | cell viability [1] |
| --- | --- | --- |
| NS(=O)(=O)C#Cc1ccccc1 [Pifithrin-mu] | 107% |  |
| C[C@@H]1O[C@@H](O[C@H]2[C@H](Oc3cc(O)c4c(c3)O[C@H](c3ccc(O)cc3)CC4=O)O[C@H](CO)[C@@H](O)[C@@H]2O)[C@H](O)[C@H](O)[C@H]1O [Naringin] |  | 102% |
| CC(=O)OCC(=O)[C@@]12OC3(CCCC3)O[C@@H]1C[C@H]1[C@@H]3CCC4=CC(=O)C=C[C@]4(C)[C@@]3(F)[C@@H](O)C[C@@]12C | 109% |  |
| CC(=O)OCC(=O)[C@@]12OC3(CCCC3)O[C@@H]1C[C@H]1[C@@H]3CCC4=CC(=O)C=C[C@]4(C)[C@@]3(F)[C@@H](O)C[C@@]12C [Amcinonide] | 102% |  |
| N=C(N=C(N)N)N1CCOCC1 [Moroxidine hydrochloride] | 103% |  |
| CN1[C@@H]2CC[C@H]1C[C@@H](OC(c1ccccc1)c1ccccc1)C2 [Benztropine mesylate] | 102 ± 12% |  |
| CN1[C@@H]2CC[C@H]1C[C@@H](OC(c1ccccc1)c1ccccc1)C2 | 113% |  |
| CC(=O)Nc1ccc(OCC(O)CNC(C)C)cc1 (stereo not given) [Practolol] | 95.2 ± 15% |  |
| CCCC(=O)Nc1ccc(OCC(O)CNC(C)C)c(C(C)=O)c1 (stereo not given) [Acebutolol hydrochloride] | 100% |  |
| CCCC(=O)Nc1ccc(OCC(O)CNC(C)C)c(C(C)=O)c1 (stereo not given) | 105% |  |
| C[C@@H]1O[C@@H](OC[C@H]2O[C@@H](Oc3c(-c4ccc(O)c(O)c4)oc4cc(O)cc(O)c4c3=O)[C@H](O)[C@@H](O)[C@@H]2O)[C@H](O)[C@H](O)[C@H]1O [RUTOSIDE (rutin)] | 111% |  |
| C[C@@H]1O[C@@H](OC[C@H]2O[C@@H](Oc3c(-c4ccc(O)c(O)c4)oc4cc(O)cc(O)c4c3=O)[C@H](O)[C@@H](O)[C@@H]2O)[C@H](O)[C@H](O)[C@H]1O [Rutin] |  | 99.5% |
| C[C@@H]1O[C@@H](OC[C@H]2O[C@@H](Oc3c(-c4ccc(O)c(O)c4)oc4cc(O)cc(O)c4c3=O)[C@H](O)[C@@H](O)[C@@H]2O)[C@H](O)[C@H](O)[C@H]1O | 97.4% |  |
| C[C@@H]1O[C@@H](OC[C@H]2O[C@@H](Oc3c(-c4ccc(O)c(O)c4)oc4cc(O)cc(O)c4c3=O)[C@H](O)[C@@H](O)[C@@H]2O)[C@H](O)[C@H](O)[C@H]1O [Rutine] |  | 86.9% |
| CC#CCC(C)[C@H](O)/C=C/[C@@H]1[C@H]2C/C(=C/CCCC(=O)O)C[C@H]2C[C@H]1O (stereo not given in full) [Iloprost] | 112% |  |
| CCN(CC)CC1CCCCN1CC(=O)N1c2ccccc2C(=O)Nc2cccnc21 (stereo not given) | 97.6% |  |
| CC1(C)C(=O)N(CCN2CCC(C(=O)c3ccc(F)cc3)CC2)c2ccccc21 [LY-310,762 hydrochloride] | 99.7% |  |
| O=C(Nc1ccccc1)OCC(CN1CCCCC1)OC(=O)Nc1ccccc1 (stereo not given) [Diperodon hydrochloride] | 103% |  |
| O=C(Nc1ccccc1)OCC(CN1CCCCC1)OC(=O)Nc1ccccc1 (stereo not given) | 95.7% |  |
| Oc1cc(O)cc(/C=C/c2ccc(O)c(O)c2)c1 [Piceatannol] | 101% |  |
| Nc1nc(=O)[nH]cc1F [Flucytosine] | 88.7% |  |
| Nc1nc(=O)[nH]cc1F | 112% |  |
| Nc1nnc(-c2cccc(Cl)c2Cl)c(N)n1 | 101 ± 5.3% |  |
| Nc1nnc(-c2cccc(Cl)c2Cl)c(N)n1 [Lamotrigine] | 96.4 ± 2.8% |  |

| Structure (SMILES) | cell viability (compound concentration: 3 uM) | cell viability [1] |
| --- | --- | --- |
| CC[C@@]1(O)C(=O)OCc2c1cc1n(c2=O)Cc2cc3c(CN(C)C)c(O)ccc3nc2-1 [Topotecan] | 64.3 ± 42% |  |
| NC[C@H]1O[C@H](O[C@H]2[C@H](O)[C@@H](O[C@H]3O[C@H](CO)[C@@H](O)[C@H](N)[C@H]3O)[C@H](N)C[C@@H]2N)[C@H](N)[C@@H](O)[C@@H]1O | 92.8% |  |
| CC(=O)O[C@]1(C(C)=O)CC[C@H]2[C@@H]3C=C(C)C4=CC(=O)CC[C@]4(C)[C@H]3CC[C@@]21C [Megestrol acetate] | 108% |  |
| CC(=O)O[C@]1(C(C)=O)CC[C@H]2[C@@H]3C=C(C)C4=CC(=O)CC[C@]4(C)[C@H]3CC[C@@]21C [Megestrol Acetate] | 106% |  |
| CC(=O)O[C@]1(C(C)=O)CC[C@H]2[C@@H]3C=C(C)C4=CC(=O)CC[C@]4(C)[C@H]3CC[C@@]21C | 110 ± 12% |  |
| COc1cc(C)c(Cc2cnc(N)nc2N)cc1OC | 95.4% |  |
| Cc1c(C)c2c(c(C)c1O)CCC(C)(CCCC(C)CCCC(C)CCCC(C)C)O2 (stereo not drawn) [alpha-TOCHOPHEROL] | 109% |  |
| Cc1cccc(C2CN(C)CCc3c2cc(O)c(O)c3Cl)c1 (stereo not given) | 122% |  |
| Cc1nc(N=Nc2cc(S(=O)(=O)O)c3cc([N+](=O)[O-])cc(S(=O)(=O)O)c3c2)c(COP(=O)(O)O)c(C=O)c1O [PPNDS tetrasodium] | 103% |  |
| Cc1cccc(C)c1NC(=O)CN1CCN(CCCC(c2ccc(F)cc2)c2ccc(F)cc2)CC1 [Lidoflazine] | 95.2% |  |
| C#CC1(O)CC[C@H]2[C@@H]3CCC4=CC(=O)CC[C@@H]4[C@H]3CC[C@@]21CC (stereo not given in full) | 103% |  |
| CC/C=C\C/C=C\C/C=C\CCCCCCCC(=O)O [Linolenic acid] |  | 123% |
| O=c1c(-c2ccccc2)c1-c1ccccc1 [diphenylcyclopropenone] | 70.8% |  |
| CC(=O)OC[C@H]1OC=C[C@@H](OC(C)=O)[C@H]1OC(C)=O [3,4,6-Tri-O-acetyl-D-galactal] |  | 99.6% |
| CCCn1c(=O)c2[nH]c(-c3ccc(OCC(=O)NCCN)cc3)nc2n(CCC)c1=O [Xanthine amine congener] | 110% |  |
| Cc1ccc(S(=O)(=O)/C=C/C#N)cc1 | 95.1% |  |
| C[C@H](CCC(=O)NCCS(=O)(=O)O)[C@H]1CC[C@H]2[C@@H]3[C@H](O)C[C@@H]4C[C@H](O)CC[C@]4(C)[C@H]3C[C@H](O)[C@]12C [Taurocholic acid] | 102% |  |
| C[C@H](CCC(=O)NCCS(=O)(=O)O)[C@H]1CC[C@H]2[C@@H]3[C@H](O)C[C@@H]4C[C@H](O)CC[C@]4(C)[C@H]3C[C@H](O)[C@]12C [Sodium Taurocholate hydrate] | 107% |  |
| CC(C)(C)NCC(O)COc1cccc2c1CC(O)C(O)C2 (stereo not given) | 99.4% |  |
| CC(C)(C)NCC(O)COc1cccc2c1CC(O)C(O)C2 (stereo not given) [Nadolol] | 91.9% |  |
| CC1=C(C(=O)O)N2C(=O)[C@@H](NC(=O)[C@H](N)c3ccccc3)[C@H]2SC1 | 103% |  |
| CC1=C(C(=O)O)N2C(=O)[C@@H](NC(=O)[C@H](N)c3ccccc3)[C@H]2SC1 [Cephalexin monohydrate] | 94.9 ± 1.4% |  |
| CC1=C(C(=O)O)N2C(=O)[C@@H](NC(=O)[C@H](N)c3ccccc3)[C@H]2SC1 [Cephalexin hydrate] | 106% |  |
| CCCc1c(OCCCOc2ccc(OCC(=O)O)cc2)ccc(C(C)=O)c1O | 111% |  |

Whole records as entered above.
CC(=O)O[C@]1(C(C)=O)CC[C@H]2[C@@H]3C=C(C)C4=CC(=O)CC[C@]4(C)[C@H]3CC[C@@]21C reads cell viability (compound concentration: 3 uM): 110 ± 12%
CCCc1c(OCCCOc2ccc(OCC(=O)O)cc2)ccc(C(C)=O)c1O reads cell viability (compound concentration: 3 uM): 111%
CCCn1c(=O)c2[nH]c(-c3ccc(OCC(=O)NCCN)cc3)nc2n(CCC)c1=O [Xanthine amine congener] reads cell viability (compound concentration: 3 uM): 110%

(further entries)

| Structure (SMILES) | cell viability (compound concentration: 3 uM) | cell viability [1] |
| --- | --- | --- |
| CC[C@H](C)C(=O)O[C@H]1C[C@H](O)C=C2C=C[C@H](C)[C@H](CC[C@@H](O)C[C@@H](O)CC(=O)O)[C@H]21 [PRAVASTATIN Sodium] | 93.6% |  |
| CC[C@H](C)C(=O)O[C@H]1C[C@H](O)C=C2C=C[C@H](C)[C@H](CC[C@@H](O)C[C@@H](O)CC(=O)O)[C@H]21 | 110% |  |
| CC[C@H](C)C(=O)O[C@H]1C[C@H](O)C=C2C=C[C@H](C)[C@H](CC[C@@H](O)C[C@@H](O)CC(=O)O)[C@H]21 [Pravastatin] | 129% |  |
| CCOCCn1c(N2CCCN(C)CC2)nc2ccccc21 [Emedastine] | 113% |  |
| CN1CC(=O)N=C1NC(=O)Nc1cccc(Cl)c1 [Fenobam] | 114% |  |
| COc1ccc2c(c1)c(CC(=O)OCC(=O)O)c(C)n2C(=O)c1ccc(Cl)cc1 | 109% |  |
| COc1ccc2c(c1)c(CC(=O)OCC(=O)O)c(C)n2C(=O)c1ccc(Cl)cc1 [Acemetacin] | 97.5 ± 6.9% |  |
| Cc1c2oc3c(C)ccc(C(=O)N[C@@H]4C(=O)N[C@H](C(C)C)C(=O)N5CCC[C@H]5C(=O)N(C)CC(=O)N(C)[C@@H](C(C)C)C(=O)O[C@@H]4C)c3nc-2c(C(=O)N[C@@H]2C(=O)N[C@H](C(C)C)C(=O)N3CCC[C@H]3C(=O)N(C)CC(=O)N(C)[C@@H](C(C)C)C(=O)O[C@@H]2C)c(N)c1=O | 1.56 ± 0.52% |  |
| CC(C)CCCC(C)C1CCC2C3CC=C4CC(O)CCC4(C)C3CCC12C (stereo not given) |  | 95.8% |
| Cc1cc(O)cc2oc(-c3ccccc3)cc(=O)c12 [7-Hydroxy-5-methylflavone] |  | 86.1% |
| CSc1ccc(OCCN=Cc2c(O)c(O)c(C(C)C)c3cc(C)c(-c4c(C)cc5c(C(C)C)c(O)c(O)c(C=NCCOc6ccc(SC)cc6)c5c4O)c(O)c23)cc1 |  | 111% |
| O=c1c2ccccc2[nH]c(=S)n1CCN1CCC(=C(c2ccc(F)cc2)c2ccc(F)cc2)CC1 [Diacylglycerol Kinase Inhibitor II] | 109% |  |
| CC(=O)NC[C@H]1CN(c2ccc(N3CCOCC3)c(F)c2)C(=O)O1 [Linezolid] | 112 ± 1.8% |  |
| CC(=O)NC[C@H]1CN(c2ccc(N3CCOCC3)c(F)c2)C(=O)O1 | 101% |  |
| O=C1C(O)=C(O)C(=O)C(O)=C1O | 99.1% |  |
| O=C1C(O)=C(O)C(=O)C(O)=C1O [Tetrahydroxy-1,4-quinone monohydrate] | 97.1% |  |
| NC(=O)c1cc[n+](CC2=C(C(=O)[O-])N3C(=O)[C@@H](NC(=O)Cc4cccs4)[C@H]3SC2)cc1 | 114% |  |
| Cc1nccn1CC1CCc2c(c3ccccc3n2C)C1=O (stereo not given) [Ondansetron] | 95% |  |
| Cc1nccn1CC1CCc2c(c3ccccc3n2C)C1=O (stereo not given) | 99.5% |  |
| Cc1nccn1CC1CCc2c(c3ccccc3n2C)C1=O (stereo not given) [Ondansetron Hydrochloride] | 87.9% |  |
| CC(=O)NCCCCCCNC(C)=O | 100% |  |
| CC(C)Cn1c(=O)n(C)c(=O)c2nc[nH]c21 [Isobutylmethylxanthine] | 112% |  |

Part of the list above, with tabs.
Structure (SMILES)	cell viability (compound concentration: 3 uM)	cell viability [1]
CC(C)CCCC(C)C1CCC2C3CC=C4CC(O)CCC4(C)C3CCC12C (stereo not given)		95.8%
Cc1cc(O)cc2oc(-c3ccccc3)cc(=O)c12 [7-Hydroxy-5-methylflavone]		86.1%
